Experiment [1] deals with poly (ADP-ribose) polymerase-1 (PARP-1) (UniProt P09874). The experiment can be described thus: immunoprecipitation of PARP-1 from SH-SY5Y cells co-transfected with PARP-1, AIMP2 and DX2 plasmids (FIG. 7A).
Experiment [2] has the same target. Briefly: summary of PARP-1 immunoprecipitation experiments in SH-SY5Y cells.
For experiment [3] the target is unchanged. The experiment can be described thus: PARP-1 pull-down from transfected SH-SY5Y cells, immunoblot (FIG. 7A).
The target in experiment [4] is T1, GFP- or Myc-tagged AIMP2 (Homo sapiens (Human)) (UniProt Q13155).
T1 sequence: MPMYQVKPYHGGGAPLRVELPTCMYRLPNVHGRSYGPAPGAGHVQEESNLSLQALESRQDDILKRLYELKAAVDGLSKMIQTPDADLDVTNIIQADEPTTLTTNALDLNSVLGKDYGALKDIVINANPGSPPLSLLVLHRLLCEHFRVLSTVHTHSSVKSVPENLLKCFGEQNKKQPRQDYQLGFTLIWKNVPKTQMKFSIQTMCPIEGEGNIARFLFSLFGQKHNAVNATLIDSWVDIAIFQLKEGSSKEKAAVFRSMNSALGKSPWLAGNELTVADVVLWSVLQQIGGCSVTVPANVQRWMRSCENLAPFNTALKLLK
Briefly: co-immunoprecipitation of GFP- and Myc-tagged proteins from HEK 293 cells (FIG. 7D-7E).

Amino acid sequences for entries named in this document (tags omitted).
UniProt P09874: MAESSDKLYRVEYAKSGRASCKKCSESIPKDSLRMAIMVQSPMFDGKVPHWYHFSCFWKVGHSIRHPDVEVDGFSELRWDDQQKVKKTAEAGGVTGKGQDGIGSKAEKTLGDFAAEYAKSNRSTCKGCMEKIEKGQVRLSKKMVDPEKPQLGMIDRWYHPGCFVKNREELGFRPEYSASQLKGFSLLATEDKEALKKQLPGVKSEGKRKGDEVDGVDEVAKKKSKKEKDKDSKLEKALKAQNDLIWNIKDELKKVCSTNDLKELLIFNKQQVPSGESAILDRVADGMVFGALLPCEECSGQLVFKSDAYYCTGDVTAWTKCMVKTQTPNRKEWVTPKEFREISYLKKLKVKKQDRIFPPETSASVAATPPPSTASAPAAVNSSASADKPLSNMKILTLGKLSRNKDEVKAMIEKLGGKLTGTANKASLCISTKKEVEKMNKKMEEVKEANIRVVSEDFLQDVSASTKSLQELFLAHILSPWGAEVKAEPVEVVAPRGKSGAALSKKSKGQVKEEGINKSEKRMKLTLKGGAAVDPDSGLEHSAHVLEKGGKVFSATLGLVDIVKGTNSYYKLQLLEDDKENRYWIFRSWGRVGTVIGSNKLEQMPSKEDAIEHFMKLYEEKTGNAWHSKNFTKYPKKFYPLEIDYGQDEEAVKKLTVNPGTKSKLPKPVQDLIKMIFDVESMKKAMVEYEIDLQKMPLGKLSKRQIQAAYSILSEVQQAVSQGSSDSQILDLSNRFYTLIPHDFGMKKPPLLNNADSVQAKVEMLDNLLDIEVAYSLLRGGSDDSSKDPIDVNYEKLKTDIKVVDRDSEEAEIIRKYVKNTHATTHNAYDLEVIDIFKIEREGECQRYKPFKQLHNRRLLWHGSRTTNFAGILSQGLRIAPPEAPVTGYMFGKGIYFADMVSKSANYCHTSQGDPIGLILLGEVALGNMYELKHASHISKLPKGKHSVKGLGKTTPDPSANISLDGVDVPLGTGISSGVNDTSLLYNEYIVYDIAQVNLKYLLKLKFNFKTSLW

The target of experiment [5] is T2, TRAF2 (UniProt Q12933).
T2 sequence (looked up): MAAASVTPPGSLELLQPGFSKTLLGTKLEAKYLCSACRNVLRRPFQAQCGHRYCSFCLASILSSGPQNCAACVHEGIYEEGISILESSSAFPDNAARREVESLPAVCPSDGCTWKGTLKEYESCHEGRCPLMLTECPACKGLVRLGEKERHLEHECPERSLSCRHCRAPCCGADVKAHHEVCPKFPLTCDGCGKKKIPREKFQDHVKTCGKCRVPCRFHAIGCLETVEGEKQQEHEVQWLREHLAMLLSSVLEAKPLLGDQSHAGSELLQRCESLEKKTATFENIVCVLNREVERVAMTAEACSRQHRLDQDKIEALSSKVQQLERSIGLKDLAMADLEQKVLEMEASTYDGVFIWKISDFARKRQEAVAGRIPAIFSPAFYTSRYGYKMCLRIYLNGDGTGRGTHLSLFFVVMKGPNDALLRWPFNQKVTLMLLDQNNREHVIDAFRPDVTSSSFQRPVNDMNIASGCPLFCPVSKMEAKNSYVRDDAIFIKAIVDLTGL
The experiment can be described thus: TRAF2 co-immunoprecipitation from transfected HEK293 cells.

The target of experiment [6] is T2, TRAF2. Briefly: TRAF2 immunoprecipitation from transfected HEK293 cells, anti-Myc immunoblot (FIG. 9A).
Experiment [7] deals with T1, GFP- or Myc-tagged AIMP2 (Homo sapiens (Human)). Briefly: co-immunoprecipitation of GFP-/Myc-tagged proteins from HEK 293 cells (FIG. 7D-7E).

Results are given in words; binding and its absence hold for the method and conditions named. For some assays here: Binding seen in cells or lysates may run through a third protein. Some entries that bind do so weakly or less than the wild type. For some assays here: Where a sequence is shown, tags or fusion partners need not be part of it.

B1: AIMP2 (aminoacyl tRNA synthase complex-interacting multifunctional protein 2) (protein)
chain: MPMYQVKPYHGGGAPLRVELPTCMYRLPNVHGRSYGPAPGAGHVQEESNLSLQALESRQDDILKRLYELKAAVDGLSKMIQTPDADLDVTNIIQADEPTTLTTNALDLNSVLGKDYGALKDIVINANPGSPPLSLLVLHRLLCEHFRVLSTVHTHSSVKSVPENLLKCFGEQNKKQPRQDYQLGFTLIWKNVPKTQMKFSIQTMCPIEGEGNIARFLFSLFGQKHNAVNATLIDSWVDIAIFQLKEGSSKEKAAVFRSMNSALGKSPWLAGNELTVADVVLWSVLQQIGGCSVTVPANVQRWMRSCENLAPFNTALKLLK
Take B1: the binding entry in experiment [1], in experiment [2] and in experiment [3] was “binds” each time.

B2: GFP- or Myc-tagged AIMP2 (protein, not shown: large carriers)
chain: MPMYQVKPYHGGGAPLRVELPTCMYRLPNVHGRSYGPAPGAGHVQEESNLSLQALESRQDDILKRLYELKAAVDGLSKMIQTPDADLDVTNIIQADEPTTLTTNALDLNSVLGKDYGALKDIVINANPGSPPLSLLVLHRLLCEHFRVLSTVHTHSSVKSVPENLLKCFGEQNKKQPRQDYQLGFTLIWKNVPKTQMKFSIQTMCPIEGEGNIARFLFSLFGQKHNAVNATLIDSWVDIAIFQLKEGSSKEKAAVFRSMNSALGKSPWLAGNELTVADVVLWSVLQQIGGCSVTVPANVQRWMRSCENLAPFNTALKLLK
For B2, the binding result in experiment [4] is listed as “binds”.

B3: Myc-tagged AIMP2 (protein, not shown: small tags and cut ends)
chain: MPMYQVKPYHGGGAPLRVELPTCMYRLPNVHGRSYGPAPGAGHVQEESNLSLQALESRQDDILKRLYELKAAVDGLSKMIQTPDADLDVTNIIQADEPTTLTTNALDLNSVLGKDYGALKDIVINANPGSPPLSLLVLHRLLCEHFRVLSTVHTHSSVKSVPENLLKCFGEQNKKQPRQDYQLGFTLIWKNVPKTQMKFSIQTMCPIEGEGNIARFLFSLFGQKHNAVNATLIDSWVDIAIFQLKEGSSKEKAAVFRSMNSALGKSPWLAGNELTVADVVLWSVLQQIGGCSVTVPANVQRWMRSCENLAPFNTALKLLK
B3: the binding entry in experiment [5] and in experiment [6] was “binds” throughout.

B4: AIMP2-DX2 (exon 2-deleted AIMP2 variant), expressed from a transfected plasmid (protein)
chain: MPMYQVKPYHGGGAPLRVELPTCMYRLPNVHGRSYGPAPGAGHVQDYGALKDIVINANPASPPLSLLVLHRLLCEHFRVLSTVHTHSSVKSVPENLLKCFGEQNKKQPRQDYQLGFTLIWKNVPKTQMKFSIQTMCPIEGEGNIARFLFSLFGQKHNAVNATLIDSWVDIAIFQLKEGSSKEKAAVFRSMNSALGKSPWLAGNELTVADVVLWSVLQQIGGCSVTVPANVQRWMRSCENLAPFNTALKLLK
Take B4: the binding result in experiment [1], in experiment [2] and in experiment [3] was “binds” each time.

B5: GFP- or Myc-tagged DX2 (protein, not shown: large carriers)
chain: MPMYQVKPYHGGGAPLRVELPTCMYRLPNVHGRSYGPAPGAGHVQDYGALKDIVINANPASPPLSLLVLHRLLCEHFRVLSTVHTHSSVKSVPENLLKCFGEQNKKQPRQDYQLGFTLIWKNVPKTQMKFSIQTMCPIEGEGNIARFLFSLFGQKHNAVNATLIDSWVDIAIFQLKEGSSKEKAAVFRSMNSALGKSPWLAGNELTVADVVLWSVLQQIGGCSVTVPANVQRWMRSCENLAPFNTALKLLK
With B5, the binding result in experiment [7] and in experiment [4] was “binds” in each case.

These data come from patent US20250281573A1.
